Reference: PubChem BioAssay AID504764 (Drosophila RNAi Screening Center, 2011)
The deposit covers about 22,000 reagents; shown is a random part of those that have a named target and a result. Over the whole deposit, 403 (1.9%) are marked active. 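Unnormalised raw counts per well; ratio z-scores behind the hit calls and whether each hit raises or lowers signal are not deposited.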 Entries without a mark were called inactive. Reagents against one gene are numbered here. The record does not give: the amount of reagent.

- Test: 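Knock-downs that raise or lower a Notch target reporter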 (primary screen)
- Cells: Drosophila Kc167 cells
- Knock-down reagent: long dsRNA against Drosophila genes
- Duration: about 5 days (4 days dsRNA, then 24 h after transfection)
- Treatment: transfection of constitutively active membrane-tethered Notch lacking the extracellular domain, read 24 h later
- Measured: 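Light from a Notch-responsive E(spl)m3 luciferase reporter under active Notch, with control-promoter and no-Notch reporter wells to normalise; raw counts from paired wells a and b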
- Reading the numbers: induced reporter light, run 1, well a and induced reporter light, run 1, well b: higher = more light from the Notch target reporter with active Notch; control promoter light, run 1, well a and control promoter light, run 1, well b: higher = more light from the viral control promoter (cell number, transfection, viability); uninduced reporter light, run 1, well a: higher = more light from the Notch target reporter without active Notch
- Hit rule: 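Wells with low control signal or poorly matching duplicates excluded; duplicates averaged; per source plate, z beyond ±2 for induced/control log2 ratio or beyond ±1.8 for induced/uninduced marks a hit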
- Meaning of the calls: active = modifier hit (raised or lowered Notch signal); inactive = not a hit

| induced reporter light, run 1, well a | induced reporter light, run 1, well b | control promoter light, run 1, well a | control promoter light, run 1, well b | uninduced reporter light, run 1, well a | gene | dsRNA no. |
| --- | --- | --- | --- | --- | --- | --- |
| 1.74e5 | 2.20e5 | 2.49e5 | 2.26e5 | 14575 | CG3251 (GeneID 33671) | 1 |
| 1.34e5 | 1.24e5 | 1.05e5 | 59870 | 9025 | CR11023 (GeneID 33155) | 1 |
| 18490 | 17090 | 18420 | 15830 | 842 | aqz (GeneID 41058) | 1 |
| 2.07e5 | 1.92e5 | 2.02e5 | 2.13e5 | 13510 | Jhbp16 (GeneID 42552) | 1 |
| 23315 | 20565 | 18638 | 13965 | 2420 | Cul4 (GeneID 35780) | 1 |
| 1.21e5 | 1.08e5 | 78880 | 85790 | 10475 | Neurochondrin (GeneID 40796) | 1 |
| 1.68e5 | 1.42e5 | 1.73e5 | 1.81e5 | 12130 | CG6026 (GeneID 42287) | 1 |
| 37045 | 41025 | 43665 | 43835 | 3482 | Gyf (GeneID 43842) | 1 |
| 74505 | 74810 | 1.32e5 | 1.77e5 | 7590 | Lhr (GeneID 36957) | 1 |
| 93270 | 84280 | 1.39e5 | 90455 | 14960 | CG9030 (GeneID 32427) | 1 |
| 68970 | 86845 | 59570 | 65645 | 5670 | CG18745 (GeneID 59141) | 1 |
| 58290 | 79200 | 64195 | 56830 | 4660 | CG8112 (GeneID 41033) | 1 |
| 1.40e5 | 1.32e5 | 73515 | 79220 | 8678 | MP1 (GeneID 40541) | 1 |
| 1.67e5 | 1.85e5 | 1.02e5 | 1.29e5 | 19780 | Tsp33B (GeneID 34590) | 1 |
| 1.09e5 | 91755 | 1.14e5 | 1.11e5 | 8325 | CG32625 (GeneID 318128) | 1 |
| 2.26e5 | 2.19e5 | 2.47e5 | 2.35e5 | 15210 | mRpS21 (GeneID 318249) | 1 |
| 1.73e5 | 1.25e5 | 1.34e5 | 86315 | 8930 | CG4042 (GeneID 40291) | 1 |
| 1.51e5 | 1.38e5 | 1.56e5 | 1.53e5 | 6560 | Rab19 (GeneID 38930) | 1 |

The list goes on, starting with the last 4 of the part before.
| induced reporter light, run 1, well a | induced reporter light, run 1, well b | control promoter light, run 1, well a | control promoter light, run 1, well b | uninduced reporter light, run 1, well a | gene | dsRNA no. |
| --- | --- | --- | --- | --- | --- | --- |
| 1.09e5 | 91755 | 1.14e5 | 1.11e5 | 8325 | CG32625 (GeneID 318128) | 1 |
| 2.26e5 | 2.19e5 | 2.47e5 | 2.35e5 | 15210 | mRpS21 (GeneID 318249) | 1 |
| 1.73e5 | 1.25e5 | 1.34e5 | 86315 | 8930 | CG4042 (GeneID 40291) | 1 |
| 1.51e5 | 1.38e5 | 1.56e5 | 1.53e5 | 6560 | Rab19 (GeneID 38930) | 1 |
| 1.53e5 | 1.13e5 | 1.01e5 | 1.01e5 | 11695 | alpha-Est5 (GeneID 40905) | 1 |
| 1.61e5 | 1.66e5 | 1.65e5 | 1.73e5 | 14455 | CG18095 (GeneID 34823) | 1 |
| 1.56e5 | 1.45e5 | 2.00e5 | 1.85e5 | 12450 | neo (GeneID 43523) | 1 |
| 1.32e5 | 1.29e5 | 1.71e5 | 2.07e5 | 12810 | CanA1 (GeneID 43670) | 1 |
| 2.02e5 | 2.03e5 | 1.64e5 | 1.44e5 | 14388 | CG7556 (GeneID 32902) | 1 |
| 97845 | 1.32e5 | 1.41e5 | 94065 | 7540 | CG1142 (GeneID 40894) | 1 |
| 1.23e5 | 1.41e5 | 1.60e5 | 1.90e5 | 13215 | ND-15 (GeneID 33179) | 1 |
| 1.30e5 | 2.06e5 | 1.80e5 | 1.82e5 | 14580 | CG34301 (GeneID 5740866) | 1 |
| 1.19e5 | 1.26e5 | 2.39e5 | 2.35e5 | 9720 | ste24a (GeneID 36908) | 1 |
| 57405 | 42625 | 27320 | 21038 | 6438 | CSN3 (GeneID 40308) | 1 |
| 1.24e5 | 1.14e5 | 99720 | 99920 | 8925 | schuy (GeneID 40184) | 1 |
| 2.09e5 | 1.64e5 | 2.40e5 | 1.66e5 | 12495 | CG13737 (GeneID 39531) | 1 |
| 1.62e5 | 1.33e5 | 2.05e5 | 1.80e5 | 11300 | Dop1R1 (GeneID 41726) | 1 |
| 2.46e5 | 3.17e5 | 1.82e5 | 1.64e5 | 20945 | Dop1R1 (GeneID 41726) | 2 |
| 1.16e5 | 87260 | 56210 | 27485 | 8125 | JIL-1 (GeneID 39241) | 1 |
| 1.27e5 | 1.10e5 | 1.90e5 | 1.87e5 | 5645 | Fem-1 (GeneID 37344) | 1 |
